Measured values taken from PMC6659673.
No constants are given. Whether binding was seen depends on the method and setting. Binding seen in cells or lysates may run through a third protein. Some binding calls cover weakened binding; strength is not graded here. For some assays here: Tags and fused reporters may be left off the sequences shown.

Protein sequences, listed by entry. Tags and fused reporters are not part of them.
UniProt P45973: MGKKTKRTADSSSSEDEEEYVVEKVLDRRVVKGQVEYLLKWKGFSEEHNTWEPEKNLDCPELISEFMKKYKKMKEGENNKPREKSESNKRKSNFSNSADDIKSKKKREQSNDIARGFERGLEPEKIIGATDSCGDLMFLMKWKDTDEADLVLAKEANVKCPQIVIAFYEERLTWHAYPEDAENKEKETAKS

Assays:
[1] = biological target: T1, Flag-tagged DGCR8 (DiGeorge syndrome critical region 8) (UniProt Q8WYQ5); experiment: co-IP; exogenous Co-IP: HEK293T cells transfected with Flag-DGCR8, CHAPS lysis buffer (120 mM NaCl, 0.3% CHAPS, 1 mM EDTA, 40 mM HEPES pH 7.5), 4 °C overnight, blots of endogenous partners
T1 sequence: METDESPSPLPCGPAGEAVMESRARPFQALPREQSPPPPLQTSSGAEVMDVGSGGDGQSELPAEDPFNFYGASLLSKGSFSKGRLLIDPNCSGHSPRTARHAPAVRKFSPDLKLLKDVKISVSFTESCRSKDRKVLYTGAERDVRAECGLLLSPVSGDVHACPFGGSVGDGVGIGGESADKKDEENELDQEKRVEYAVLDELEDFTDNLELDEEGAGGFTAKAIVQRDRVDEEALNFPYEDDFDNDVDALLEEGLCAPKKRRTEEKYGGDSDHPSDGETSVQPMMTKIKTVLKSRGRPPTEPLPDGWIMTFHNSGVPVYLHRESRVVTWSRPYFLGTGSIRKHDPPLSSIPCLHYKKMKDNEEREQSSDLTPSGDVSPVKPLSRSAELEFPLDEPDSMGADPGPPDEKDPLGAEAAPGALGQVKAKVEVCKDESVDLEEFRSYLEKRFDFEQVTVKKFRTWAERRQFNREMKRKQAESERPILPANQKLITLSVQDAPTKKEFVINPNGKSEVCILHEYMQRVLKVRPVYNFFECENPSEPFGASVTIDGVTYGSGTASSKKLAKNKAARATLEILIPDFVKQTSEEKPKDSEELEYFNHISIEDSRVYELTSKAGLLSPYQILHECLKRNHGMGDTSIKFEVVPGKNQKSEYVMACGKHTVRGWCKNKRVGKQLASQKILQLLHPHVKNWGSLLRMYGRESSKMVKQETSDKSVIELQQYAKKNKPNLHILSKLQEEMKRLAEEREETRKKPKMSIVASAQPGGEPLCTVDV

[2] = biological target: T2, endogenous DGCR8 protein in WT hMSCs (human (endogenous in hMSCs)) (UniProt Q8WYQ5); experiment: co-IP; endogenous Co-IP: WT hMSC lysate in CHAPS lysis buffer, pre-cleared, IP with an anti-DGCR8 antibody and Protein A/G-PLUS agarose beads overnight at 4 °C, blots of partners
T2 sequence: T1 sequence

binding [1]	binding [2]	Substance
binds		HP1α (heterochromatin protein 1 alpha) (from UniProt P45973 1-191)
	binds	HP1α, endogenous in WT hMSCs (from UniProt P45973 1-191)
